Reference: patent EP1858912B1, “COMPOUNDS FOR REDUCING AGGREGATION OF AMYLOID BETA-PEPTIDE” (Alphabeta AB, priority 2005, dated 2012)
Not every detail of the peptide structures is certain; ends, links or a residue may be inferred. Where a SMILES comes first, the peptide text is derived from it.

System: Aβ(1-40)
Experiment: Thioflavin T fluorescence assay of Aβ fibril formation
Format: biochemical
Conditions: ThT fluorescence; 5:1 ligand/Aβ molar ratio, different periods of incubation at 37°C (Fig. 10)
Procedure: Fibril formation of Aβ(1-40) or Aβ(12-28) with and without the presence of the ligands was assessed by the fibril-binding dye thioflavin T (ThT). Solutions containing Aβ peptides in concentrations from about 20 µM to 200 µM without ligand present, or at different peptide/ligand ratios were prepared in 10 mM sodium phosphate buffer, pH 7. The samples were incubated at 37°C under constant gentle shaking. At different time points aliquots were removed and ThT measurements performed using 10 µM ThT in 10 mM sodium phosphate buffer, pH 6, containing 150mMNaCl.
The samples were incubated for 10-15 minutes in the dark before ThT fluorescence measurements were made. Fluorescence was measured using a FarCyte™ (Tecan) instrument with excitation at 440 nm and emission at 480 nm. All samples were measured in duplicates.

N=C(N)NCCC[C@H](N)C(=O)NCC(=O)O [Arg-Gly, reference compound] (H-Arg-Gly-OH)
Aβ fibril formation: no effect on Aβ fibril formation
